Like-named read-outs stand apart in the source and are kept apart here. These are yes or no findings as the source states them, for the method shown. For some of these results: In cells and extracts the contact can be indirect. Some results given as binding are weak or reduced against the parent protein; the word gives no strength. One block for each substance: values may come before it.
Assays:
[1] = biological target: GFP-hCIB2 (calcium and integrin binding protein 2) (human) (UniProt O75838); test: NanoSPD
[2] = biological target: GFP-hCIB2 (calcium and integrin binding protein 2) (human) (UniProt O75838); test: NanoSPD; remark: listed apart in the source
[3] = biological target: GFP-hMETTL5 (human) (UniProt Q9NRN9); test: NanoSPD
[4] = biological target: tdTomato-CIB2 (UniProt O75838); test: co-IP
[5] = biological target: HA-GST-Rheb (WT, in HEK293) (UniProt Q15382); test: pull-down
[6] = biological target: HA-GST-Rheb (WT, in HEK293) (UniProt Q15382); test: pull-down; remark: listed apart in the source
[7] = biological target: HA-GST-Rheb (WT, in HEK293) (UniProt Q15382); test: co-IP
[8] = biological target: HA-GST-Rheb C181S (UniProt Q15382); test: co-IP
[9] = biological target: HA-GST-Rheb D60I (UniProt Q15382); test: co-IP
[10] = biological target: HA-GST-Rheb D60K (UniProt Q15382); test: co-IP
[11] = biological target: HA-GST-Rheb D60V (UniProt Q15382); test: co-IP
[12] = biological target: HA-GST-Rheb S20N (UniProt Q15382); test: co-IP
[13] = biological target: HA-GST-Rheb Δ181-184 (UniProt Q15382); test: co-IP

Sequences of proteins named here, by UniProt entry; tags and fusion partners are left off. A change or cut given only in a name is not applied to a line headed by its entry.
UniProt O75838, whole entry: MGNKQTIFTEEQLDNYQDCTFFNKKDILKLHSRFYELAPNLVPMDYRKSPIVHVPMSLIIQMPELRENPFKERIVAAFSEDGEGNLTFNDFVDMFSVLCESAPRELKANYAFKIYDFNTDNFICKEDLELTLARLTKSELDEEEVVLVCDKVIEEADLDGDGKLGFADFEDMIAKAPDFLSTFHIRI
UniProt Q9NRN9, whole entry: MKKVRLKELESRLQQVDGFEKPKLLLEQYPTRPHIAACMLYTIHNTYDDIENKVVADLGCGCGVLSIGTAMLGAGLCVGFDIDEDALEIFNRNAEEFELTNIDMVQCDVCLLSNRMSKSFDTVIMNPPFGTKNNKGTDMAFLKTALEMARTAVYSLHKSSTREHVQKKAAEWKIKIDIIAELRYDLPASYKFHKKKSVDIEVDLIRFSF
UniProt Q15382, whole entry: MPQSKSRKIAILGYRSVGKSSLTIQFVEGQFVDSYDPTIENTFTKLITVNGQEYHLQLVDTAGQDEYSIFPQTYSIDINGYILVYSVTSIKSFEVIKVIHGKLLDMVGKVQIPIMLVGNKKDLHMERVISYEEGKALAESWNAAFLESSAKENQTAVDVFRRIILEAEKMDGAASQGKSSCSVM
UniProt Q96EZ8, whole entry: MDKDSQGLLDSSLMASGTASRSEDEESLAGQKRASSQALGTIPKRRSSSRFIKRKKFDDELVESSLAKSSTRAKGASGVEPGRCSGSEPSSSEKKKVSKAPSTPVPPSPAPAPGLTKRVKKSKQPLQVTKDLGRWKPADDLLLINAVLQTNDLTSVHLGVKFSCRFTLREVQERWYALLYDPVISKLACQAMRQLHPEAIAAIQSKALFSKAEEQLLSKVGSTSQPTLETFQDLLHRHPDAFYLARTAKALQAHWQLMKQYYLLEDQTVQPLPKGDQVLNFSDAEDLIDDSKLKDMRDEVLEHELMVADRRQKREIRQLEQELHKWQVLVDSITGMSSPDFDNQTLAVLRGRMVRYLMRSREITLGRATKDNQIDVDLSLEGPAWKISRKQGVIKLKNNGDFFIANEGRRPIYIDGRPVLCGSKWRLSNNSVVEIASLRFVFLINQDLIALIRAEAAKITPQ
UniProt Q8N122, whole entry: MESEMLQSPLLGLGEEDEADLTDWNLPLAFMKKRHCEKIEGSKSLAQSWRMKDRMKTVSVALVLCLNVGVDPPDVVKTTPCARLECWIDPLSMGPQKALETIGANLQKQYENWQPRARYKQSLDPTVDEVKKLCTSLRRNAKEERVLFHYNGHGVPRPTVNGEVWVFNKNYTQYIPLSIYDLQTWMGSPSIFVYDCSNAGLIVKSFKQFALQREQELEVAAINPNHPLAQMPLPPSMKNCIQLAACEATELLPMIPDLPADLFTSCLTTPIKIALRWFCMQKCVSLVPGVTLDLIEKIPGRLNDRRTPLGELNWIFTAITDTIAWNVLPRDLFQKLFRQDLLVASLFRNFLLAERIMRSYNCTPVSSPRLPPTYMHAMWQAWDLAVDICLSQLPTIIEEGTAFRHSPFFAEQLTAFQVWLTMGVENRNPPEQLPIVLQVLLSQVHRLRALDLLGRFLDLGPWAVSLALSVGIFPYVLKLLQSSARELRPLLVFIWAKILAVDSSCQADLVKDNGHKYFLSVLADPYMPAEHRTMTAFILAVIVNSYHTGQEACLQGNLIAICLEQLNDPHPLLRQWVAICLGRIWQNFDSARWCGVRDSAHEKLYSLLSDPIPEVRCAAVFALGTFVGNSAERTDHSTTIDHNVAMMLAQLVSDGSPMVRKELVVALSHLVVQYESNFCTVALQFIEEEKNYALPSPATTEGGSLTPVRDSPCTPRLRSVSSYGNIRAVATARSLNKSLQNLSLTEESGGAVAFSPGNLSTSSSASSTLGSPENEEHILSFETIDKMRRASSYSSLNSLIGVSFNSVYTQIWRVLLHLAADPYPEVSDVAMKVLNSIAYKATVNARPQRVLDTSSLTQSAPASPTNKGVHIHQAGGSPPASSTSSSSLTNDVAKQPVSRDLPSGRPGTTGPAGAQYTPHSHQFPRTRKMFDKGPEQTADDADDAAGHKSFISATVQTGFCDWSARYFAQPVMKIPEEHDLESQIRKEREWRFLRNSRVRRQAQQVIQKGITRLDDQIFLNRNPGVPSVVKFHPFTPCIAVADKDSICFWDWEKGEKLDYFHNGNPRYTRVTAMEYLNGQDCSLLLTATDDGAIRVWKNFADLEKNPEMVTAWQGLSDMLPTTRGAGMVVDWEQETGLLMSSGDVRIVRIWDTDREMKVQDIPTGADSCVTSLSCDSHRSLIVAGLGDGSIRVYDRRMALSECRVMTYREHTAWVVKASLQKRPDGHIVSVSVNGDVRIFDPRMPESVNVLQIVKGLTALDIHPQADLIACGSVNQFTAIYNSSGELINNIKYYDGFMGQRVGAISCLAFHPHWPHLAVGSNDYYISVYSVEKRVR

- binding [1]: no binding
Substance: microspherule protein 1 (MCRS1) (from UniProt Q96EZ8 1-462)

- binding [2]: binds
- binding [1]: binds
- binding [3]: no binding
Substance: HA-mCherry-Raptor (from UniProt Q8N122 1-1335)

- binding [1]: binds
- binding [3]: no binding
Substance: HA-GST-Rheb (in COS-7) (from UniProt Q15382 1-184)

- binding [4]: binds
Substance: Raptor (exogenously expressed in HEK293) (from UniProt Q8N122 1-1335)

- binding [5]: binds
- binding [6]: binds
- binding [7]: binds
- binding [8]: binds
- binding [9]: binds
- binding [10]: binds
- binding [11]: binds
- binding [12]: binds
- binding [13]: binds
Substance: tdTomato-CIB2 (from UniProt O75838 1-187)
